Reference: paper PMC12397258

How the values were obtained:
[1] = biological target: T1, GST-TRIM2 (UniProt Q9C040); test: pull-down; purified GST-TRIM2 (or GST) with glutathione Sepharose 4B incubated with lysates of transfected HEK293T cells at 4 C overnight; western blot with anti-Flag antibody; only the target purified
T1 sequence: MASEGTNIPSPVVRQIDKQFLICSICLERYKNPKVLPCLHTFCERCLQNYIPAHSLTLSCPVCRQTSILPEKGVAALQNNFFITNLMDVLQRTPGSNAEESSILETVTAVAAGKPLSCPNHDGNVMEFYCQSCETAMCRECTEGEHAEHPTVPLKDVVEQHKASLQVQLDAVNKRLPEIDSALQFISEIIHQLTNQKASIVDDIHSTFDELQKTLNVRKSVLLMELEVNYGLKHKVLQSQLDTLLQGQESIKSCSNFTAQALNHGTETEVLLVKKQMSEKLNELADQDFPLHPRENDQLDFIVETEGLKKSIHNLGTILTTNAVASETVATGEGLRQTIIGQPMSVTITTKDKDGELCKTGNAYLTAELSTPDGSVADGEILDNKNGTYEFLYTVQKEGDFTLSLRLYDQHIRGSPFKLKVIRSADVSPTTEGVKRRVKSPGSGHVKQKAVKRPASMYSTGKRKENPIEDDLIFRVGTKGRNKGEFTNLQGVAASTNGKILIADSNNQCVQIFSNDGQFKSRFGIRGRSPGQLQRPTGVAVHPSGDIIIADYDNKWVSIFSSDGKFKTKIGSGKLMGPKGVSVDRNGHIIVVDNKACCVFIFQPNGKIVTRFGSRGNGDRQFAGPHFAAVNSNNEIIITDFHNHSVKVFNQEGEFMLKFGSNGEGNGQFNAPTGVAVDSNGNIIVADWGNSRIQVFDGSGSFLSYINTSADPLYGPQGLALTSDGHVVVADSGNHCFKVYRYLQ

[2] = biological target: T2, HA-TRIM2 (UniProt Q9C040); test: co-IP; HEK293T cells co-transfected with the indicated plasmids (PEI), 48 h, 10 uM MG132 for 4 h before lysis; lysis buffer 0.5% lubrol-px, 50 mM KCl, 2 mM CaCl2, 20% glycerol, 50 mM Tris-HCl, 3 mM sodium vanadate, 2 mM NaF; 1 ug antibody with Protein A/G agarose at 4 C overnight; western blot
T2 sequence: T1 sequence

- binding [1]: binds
- binding [2]: binds
Substance: Flag-BNIP3

Results are given in words; binding and its absence hold for the method and conditions named. Binding seen in cells or lysates may run through a third protein. Binding can be weak; no strength is given. Where a sequence is shown, tags or fusion partners need not be part of it.
